Experiment [1] addresses OAS-like domain of OASL (residues 1-350) with a C-terminal 6xHis-tag (human) (UniProt Q15646). Nature of the experiment: SEC; HiLoad 16/60 Superdex 75; 100 mM DL-malic acid pH 5.9, 200 Na2SO4, 300 mM NaCl, 2 mM BME, 5% glycerol; markers beta-amylase, albumin, carbonic anhydrase; both purified. (In general: Size exclusion chromatography separates by hydrodynamic size, large species first.)

The target of experiment [2] is OASL, 3x C-terminal FLAG-tagged, stably expressed in Flp-In T-REx HEK293 cells (human) (UniProt Q15646). Nature of the experiment: SEC; size exclusion chromatography on lysates of Flp-In T-Rex HEK293 cells stable transfected with OASL.

Results are given in words; binding and its absence hold for the method and conditions named. Some binding calls cover weakened binding; strength is not graded here. Sequences can lack the tags named with a protein.

B1: OAS-like domain of OASL (residues 1-350) with a C-terminal 6xHis-tag (domain or fragment, UniProt Q15646 1-350)
chain: MALMQELYSTPASRLDSFVAQWLQPHREWKEEVLDAVRTVEEFLRQEHFQGKRGLDQDVRVLKVVKVGSFGNGTVLRSTREVELVAFLSCFHSFQEAAKHHKDVLRLIWKTMWQSQDLLDLGLEDLRMEQRVPDALVFTIQTRGTAEPITVTIVPAYRALGPSLPNSQPPPEVYVSLIKACGGPGNFCPSFSELQRNFVKHRPTKLKSLLRLVKHWYQQYVKARSPRANLPPLYALELLTIYAWEMGTEEDENFMLDEGFTTVMDLLLEYEVICIYWTKYYTLHNAIIEDCVRKQLKKERPIILDPADPTLNVAEGYRWDIVAQRASQCLKQDCCYDNRENPISSWNVKR
On to B1, for which, in experiment [1], the binding result is “no binding”.

B2: full-length OASL (human 2'-5' oligoadenylate synthetase-like protein), recombinant from insect cells (natural protein, UniProt Q15646 1-514, looked up)
chain: MALMQELYSTPASRLDSFVAQWLQPHREWKEEVLDAVRTVEEFLRQEHFQGKRGLDQDVRVLKVVKVGSFGNGTVLRSTREVELVAFLSCFHSFQEAAKHHKDVLRLIWKTMWQSQDLLDLGLEDLRMEQRVPDALVFTIQTRGTAEPITVTIVPAYRALGPSLPNSQPPPEVYVSLIKACGGPGNFCPSFSELQRNFVKHRPTKLKSLLRLVKHWYQQYVKARSPRANLPPLYALELLTIYAWEMGTEEDENFMLDEGFTTVMDLLLEYEVICIYWTKYYTLHNAIIEDCVRKQLKKERPIILDPADPTLNVAEGYRWDIVAQRASQCLKQDCCYDNRENPISSWNVKRARDIHLTVEQRGYPDFNLIVNPYEPIRKVKEKIRRTRGYSGLQRLSFQVPGSERQLLSSRCSLAKYGIFSHTHIYLLETIPSEIQVFVKNPDGGSYAYAINPNSFILGLKQQIEDQQGLPKKQQQLEFQGQVLQDWLGLGIYGIQDSDTLILSKKKGEALFPAS
notes: human OASL, full length (printed as 61 kDa); OAS-like domain (residues 1-350) followed by two ubiquitin-like domains; also called OAS-like protein
In the case of B2, the binding entry in experiment [2] is “binds”.

The values are drawn from article PMC4446440, “Structural and functional analysis reveals that human OASL binds dsRNA to enhance RIG-I signaling” (Nucleic Acids Research, 2015).
